Experimental data as given in publication PMC6876566.
No constants are given. Whether binding was seen depends on the method and setting. In cells and extracts the contact can be indirect. Some binding calls cover weakened binding; strength is not graded here.

T1: ATR interacting protein (ATRIP) (human (endogenous in HCT116)) (UniProt Q8WXE1)
T1 sequence: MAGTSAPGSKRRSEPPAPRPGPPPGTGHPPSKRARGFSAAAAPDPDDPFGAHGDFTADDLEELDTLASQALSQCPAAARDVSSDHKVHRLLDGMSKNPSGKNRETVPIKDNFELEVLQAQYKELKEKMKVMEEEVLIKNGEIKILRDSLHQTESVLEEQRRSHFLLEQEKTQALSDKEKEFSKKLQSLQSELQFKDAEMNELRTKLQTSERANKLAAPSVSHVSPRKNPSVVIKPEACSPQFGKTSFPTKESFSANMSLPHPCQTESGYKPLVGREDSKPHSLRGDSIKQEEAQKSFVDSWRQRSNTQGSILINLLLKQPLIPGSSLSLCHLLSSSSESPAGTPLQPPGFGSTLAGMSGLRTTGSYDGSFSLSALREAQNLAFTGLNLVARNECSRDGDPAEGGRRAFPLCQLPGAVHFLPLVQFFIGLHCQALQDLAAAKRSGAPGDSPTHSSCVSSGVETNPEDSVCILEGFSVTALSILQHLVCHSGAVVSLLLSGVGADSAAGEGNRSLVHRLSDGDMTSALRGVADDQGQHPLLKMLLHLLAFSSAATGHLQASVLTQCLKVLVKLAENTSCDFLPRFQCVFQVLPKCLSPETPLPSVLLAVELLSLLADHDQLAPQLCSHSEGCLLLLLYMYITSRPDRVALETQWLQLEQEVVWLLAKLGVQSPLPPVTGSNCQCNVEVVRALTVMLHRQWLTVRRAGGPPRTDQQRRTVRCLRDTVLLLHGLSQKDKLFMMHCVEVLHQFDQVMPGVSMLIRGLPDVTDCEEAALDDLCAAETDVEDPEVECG

T2: ZFP161 D3 mutant (UniProt O43829)
T2 sequence: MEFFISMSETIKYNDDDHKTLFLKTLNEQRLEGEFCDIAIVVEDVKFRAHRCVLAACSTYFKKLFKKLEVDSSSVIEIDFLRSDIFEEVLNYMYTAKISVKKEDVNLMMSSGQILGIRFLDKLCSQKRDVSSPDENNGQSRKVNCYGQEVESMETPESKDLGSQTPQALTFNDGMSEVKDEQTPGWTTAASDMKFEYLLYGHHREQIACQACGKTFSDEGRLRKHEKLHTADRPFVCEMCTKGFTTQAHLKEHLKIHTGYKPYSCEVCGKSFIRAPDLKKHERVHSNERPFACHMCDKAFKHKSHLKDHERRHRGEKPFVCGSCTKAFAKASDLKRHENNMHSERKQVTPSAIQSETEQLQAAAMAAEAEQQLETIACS


Key:
[1] = molecular target: T1, ATR interacting protein (ATRIP) (human (endogenous in HCT116)); assay: co-IP; endogenous proteins, HCT116 whole cell lysates, immunoprecipitation with ZFP161 or ATRIP antibody and protein A beads; lysis in high salt NETN (500 mM NaCl), diluted with NET buffer; unstressed cells, also after DNA damage or replication stress
ZFP161 D3 mutant = molecular target: T2, ZFP161 D3 mutant; assay: co-IP; HEK293T cells transfected with ZFP161 vectors (with S-tagged RPA32 for Fig. 4e), 48 h, immunoprecipitation and immunoblotting

binding (ZFP161 D3 mutant) | Molecule | binding [1]
– | ZFP161 (from UniProt O43829 1-449) | binds
no binding | ATRIP (in HEK293T cells) (protein, UniProt Q8WXE1 1-791) MAGTSAPGSKRRSEPPAPRPGPPPGTGHPPSKRARGFSAAAAPDPDDPFGAHGDFTADDLEELDTLASQALSQCPAAARDVSSDHKVHRLLDGMSKNPSGKNRETVPIKDNFELEVLQAQYKELKEKMKVMEEEVLIKNGEIKILRDSLHQTESVLEEQRRSHFLLEQEKTQALSDKEKEFSKKLQSLQSELQFKDAEMNELRTKLQTSERANKLAAPSVSHVSPRKNPSVVIKPEACSPQFGKTSFPTKESFSANMSLPHPCQTESGYKPLVGREDSKPHSLRGDSIKQEEAQKSFVDSWRQRSNTQGSILINLLLKQPLIPGSSLSLCHLLSSSSESPAGTPLQPPGFGSTLAGMSGLRTTGSYDGSFSLSALREAQNLAFTGLNLVARNECSRDGDPAEGGRRAFPLCQLPGAVHFLPLVQFFIGLHCQALQDLAAAKRSGAPGDSPTHSSCVSSGVETNPEDSVCILEGFSVTALSILQHLVCHSGAVVSLLLSGVGADSAAGEGNRSLVHRLSDGDMTSALRGVADDQGQHPLLKMLLHLLAFSSAATGHLQASVLTQCLKVLVKLAENTSCDFLPRFQCVFQVLPKCLSPETPLPSVLLAVELLSLLADHDQLAPQLCSHSEGCLLLLLYMYITSRPDRVALETQWLQLEQEVVWLLAKLGVQSPLPPVTGSNCQCNVEVVRALTVMLHRQWLTVRRAGGPPRTDQQRRTVRCLRDTVLLLHGLSQKDKLFMMHCVEVLHQFDQVMPGVSMLIRGLPDVTDCEEAALDDLCAAETDVEDPEVECG | –
